In PubChem BioAssay AID2685 (National Center for Advancing Translational Sciences (NCATS), 2010):
The list shows a part of the results. Further columns of the screen follow, without active or inactive calls. The list favours compounds with an active or inconclusive main result. Words in brackets tell the shape of the fitted curve; partial curves, single points and poor fits give uncertain potencies.

Test: qHTS Assay for Lipid Storage Modulators in Drosophila S3 Cells;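 on cell number change: cells counted by Cell Tracker Red CMTPX staining in the red channel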
Settings: BODIPY lipid droplet fluorescence, 18-24 h; for cell number change: measured here: cell count max response, cells fed with added oleic acid
Summary of the method: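 Drosophila S3 cells loaded with oleic acid (400 uM, as added) and compounds at several concentrations; lipid droplets imaged by 488-nm laser-scanning cytometry, 500–530 nm intensity and object ratio to cell channel. Percent activity normalized to 20 uM Triacsin C.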

[1] = measured here: cell number channel AC50, cells fed with added oleic acid
[2] = measured here: lipid fluorescence (Fed channel) AC50, cells fed with added oleic acid

Row | Compound | cell number change [%] | AC50 [1] | AC50 [2]
1 | COc1ccc(/C=C2\CCCC3C2=NN(C(=O)CSc2n[nH]c(N)n2)C3c2ccc(OC)cc2)cc1 (stereo not drawn) | -24.8 |  | 
2 | CCC1(c2ccccc2)NC(=O)N(CC(=O)NCCN2C(=O)S/C(=C\c3cccnc3)C2=O)C1=O (stereo not drawn) | 41.1 | 0.13 µM [rising, full curve, poor fit] | 4.61 µM [rising, full curve, poor fit]
3 | Cc1cccc(OCC(=O)N2CCN(C(=O)COc3ccc(Cl)cc3)CC2)c1 | -21.8 |  | 
4 | CCOC(=O)c1c(NC(=S)Nc2ccc(Cl)cc2)sc(C)c1C | 14.2 |  | 0.411 µM [rising, partial curve, poor fit]
5 | COc1ccc(C(=O)Nc2ccc(N3CCN(C(=O)c4cccs4)CC3)cc2)cc1Br | 10.1 |  | 6.51 µM [rising, single point]
6 | Cc1nc2ccc(S(=O)(=O)N3CCCCC3)cc2s1 | 13.2 |  | 
7 | O=C(CSc1nnc(-c2ccccc2F)o1)Nc1ccc(N2CCOCC2)cc1 | 8.64 | 6.51 µM [rising, single point] | 
8 | O=C(COc1ccc(-c2nnco2)cc1)Nc1ccc(C(F)(F)F)cc1 | 53.9 | 0.731 µM [rising, full curve] | 
9 | CCOc1cc(NC(=S)NC)c(OCC)cc1NC(=O)c1ccc(OC)cc1 | 41.8 | 20.6 µM [rising, single point] | 
10 | CCN(CC)CCn1c2ccc(F)cc2c2nc(C)sc21 | 25.9 |  | 29.1 µM [rising, single point]
11 | COC(=O)c1cn[nH]c1NC(=S)Nc1ccc(C)cc1Cl | -44.1 | 32.6 µM [falling, single point] | 16.4 µM [falling, partial curve]
12 | CCN(CC)c1ccc(/C=N/NC(=O)c2c(Cl)c(C)nn2C)cc1 | 30.1 | 9.2 µM [rising, partial curve, poor fit] | 9.2 µM [rising, partial curve]
13 | Cc1ccccc1C(=O)c1c[nH]c(C(N)=O)c1 | -10.6 |  | 0.00461 µM [rising, full curve, poor fit]
14 | Cc1ccc(CNC(=O)CSc2ccc(-c3cccs3)nn2)cc1 | -8.6 |  | 0.146 µM [rising, full curve, poor fit]
15 | CCCCC(=O)NNC(=S)NC(=O)c1ccc([N+](=O)[O-])cc1 | -3.39 |  | 0.82 µM [falling, full curve, poor fit]
16 | CC(C)c1ccc(N)c(S(=O)(=O)O)c1 | 1.56 |  | 1.84 µM [falling, full curve, poor fit]
17 | COc1ccc(CNC(=O)CN(Cc2ccc(Cl)cc2)S(=O)(=O)c2ccccc2)cc1 |  |  | 0.103 µM [falling, full curve, poor fit]

As entered above.
Value for O=C(COc1ccc(-c2nnco2)cc1)Nc1ccc(C(F)(F)F)cc1 under cell number change [%]: 53.9
Value for Cc1ccccc1C(=O)c1c[nH]c(C(N)=O)c1 under cell number change [%]: -10.6
